The values below come from publication doi:10.1101/2025.02.15.638389.

Chains of the proteins cited; added tags and fusions are not shown.
UniProt Q96RU7: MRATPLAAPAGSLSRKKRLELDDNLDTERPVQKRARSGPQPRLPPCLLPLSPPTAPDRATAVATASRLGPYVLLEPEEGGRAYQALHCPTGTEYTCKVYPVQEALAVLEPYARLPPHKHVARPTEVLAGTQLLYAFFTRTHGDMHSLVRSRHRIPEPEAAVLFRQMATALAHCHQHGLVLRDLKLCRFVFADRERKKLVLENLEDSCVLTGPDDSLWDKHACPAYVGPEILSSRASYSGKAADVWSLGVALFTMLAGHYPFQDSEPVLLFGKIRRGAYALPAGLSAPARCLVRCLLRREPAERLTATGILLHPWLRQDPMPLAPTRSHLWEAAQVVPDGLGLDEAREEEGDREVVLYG

These are yes or no findings as the source states them, for the method shown. Some entries that bind do so weakly or less than the wild type.

This experiment concerns the target TRIB3 protein (BLI) (UniProt Q96RU7). The experiment in a line: BLI.

WSFGILLTELTTKG [Peptide S1-2]: the binding result is listed as “binds”.
